Results are given in words; binding and its absence hold for the method and conditions named. In cells and extracts the contact can be indirect. Some binding calls cover weakened binding; strength is not graded here. Sequences can lack the tags named with a protein.
T1: GST-tagged E. coli HypA (E. coli) (UniProt P0A700)
T1 sequence: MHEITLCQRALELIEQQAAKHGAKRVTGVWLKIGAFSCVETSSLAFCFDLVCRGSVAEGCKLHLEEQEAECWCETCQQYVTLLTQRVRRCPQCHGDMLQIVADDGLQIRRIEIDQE


target: T1, GST-tagged E. coli HypA (E. coli); test: pull-down; GST-EcHypA as bait on glutathione resin; lysate of His-SUMO-EcHypB (tag not cleaved) or variant mixed with GST-EcHypA lysate; washed with PBS; eluted with 20 mM GSH; SDS-PAGE

Row | binding | Binder
1 | binds | His-SUMO-tagged E. coli HypB, wild type (protein, UniProt P0AAN3 1-290) MCTTCGCGEGNLYIEGDEHNPHSAFRSAPFAPAARPKMKITGIKAPEFTPSQTEEGDLHYGHGEAGTHAPGMSQRRMLEVEIDVLDKNNRLAERNRARFAARKQLVLNLVSSPGSGKTTLLTETLMRLKDSVPCAVIEGDQQTVNDAARIRATGTPAIQVNTGKGCHLDAQMIADAAPRLPLDDNGILFIENVGNLVCPASFDLGEKHKVAVLSVTEGEDKPLKYPHMFAAASLMLLNKVDLLPYLNFDVEKCIACAREVNPEIEIILISATSGEGMDQWLNWLETQRCA
2 | no binding | His-SUMO-tagged E. coli HypB V80A (protein, UniProt P0AAN3 1-290) MCTTCGCGEGNLYIEGDEHNPHSAFRSAPFAPAARPKMKITGIKAPEFTPSQTEEGDLHYGHGEAGTHAPGMSQRRMLEAEIDVLDKNNRLAERNRARFAARKQLVLNLVSSPGSGKTTLLTETLMRLKDSVPCAVIEGDQQTVNDAARIRATGTPAIQVNTGKGCHLDAQMIADAAPRLPLDDNGILFIENVGNLVCPASFDLGEKHKVAVLSVTEGEDKPLKYPHMFAAASLMLLNKVDLLPYLNFDVEKCIACAREVNPEIEIILISATSGEGMDQWLNWLETQRCA

The remaining lines, values behind:

Row | Binder | binding
3 | His-SUMO-tagged E. coli HypB L78A (protein, UniProt P0AAN3 1-290) MCTTCGCGEGNLYIEGDEHNPHSAFRSAPFAPAARPKMKITGIKAPEFTPSQTEEGDLHYGHGEAGTHAPGMSQRRMAEVEIDVLDKNNRLAERNRARFAARKQLVLNLVSSPGSGKTTLLTETLMRLKDSVPCAVIEGDQQTVNDAARIRATGTPAIQVNTGKGCHLDAQMIADAAPRLPLDDNGILFIENVGNLVCPASFDLGEKHKVAVLSVTEGEDKPLKYPHMFAAASLMLLNKVDLLPYLNFDVEKCIACAREVNPEIEIILISATSGEGMDQWLNWLETQRCA | no binding
4 | His-SUMO-tagged E. coli HypB E79A (protein, UniProt P0AAN3 1-290) MCTTCGCGEGNLYIEGDEHNPHSAFRSAPFAPAARPKMKITGIKAPEFTPSQTEEGDLHYGHGEAGTHAPGMSQRRMLAVEIDVLDKNNRLAERNRARFAARKQLVLNLVSSPGSGKTTLLTETLMRLKDSVPCAVIEGDQQTVNDAARIRATGTPAIQVNTGKGCHLDAQMIADAAPRLPLDDNGILFIENVGNLVCPASFDLGEKHKVAVLSVTEGEDKPLKYPHMFAAASLMLLNKVDLLPYLNFDVEKCIACAREVNPEIEIILISATSGEGMDQWLNWLETQRCA | binds

Reference: paper PMC3287977
